According to PubChem BioAssay AID504467 (National Center for Advancing Translational Sciences (NCATS), 2011):
Screen size: about 330,000 compounds; about 7,700 (2.3%) were called active. The inconclusive results got no clear call from the source; some entries with a clear call stand among them for comparison. The call rests on the fitted dose curve; in most records, active means well fitted inhibition curve with a large enough effect; inconclusive means small, poorly fitted or top-dose-only effect, or effect the other way; inactive means flat fitted curve, though single readings scatter. Potencies beside an inconclusive call are fits to weak or partial responses and may not hold up.

Assay: qHTS screen for small molecules that inhibit ELG1-dependent DNA repair in human embryonic kidney (HEK293T) cells expressing luciferase-tagged ELG1; further: nearly all actives have a fitted effect of over 55% in size
Conditions: HEK293T ELG1-luciferase reporter, luminescence, 16 h, DNA damage induced by 5-fluorouridine; activity change, negative = inhibition: at 46.1 µM (top of the series)
Procedure, shortened: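 Reporter activity after DNA damage by 5-fluorouridine is monitored. Compound-treated cells incubate 16 hr at 37 °C, then ONE-Glo is added for 30 min before luminescence reading.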
On the % scale 0 is the no-effect control and ±100 the full control effect; potency means the concentration at half of the fitted maximal effect.

| SMILES | Potency | activity change, negative = inhibition |
| --- | --- | --- |
| COc1ccc(C(C)(C)C)cc1NC(=O)CSc1ncn[nH]1 | inconclusive: 2.31 µM [activator, full curve, poor fit] |  |
| Cc1ccc(C(=O)c2ccccc2C(=O)OCC(=O)NCCc2ccccc2)cc1 | inconclusive: 18.4 µM [inhibitor, single point] |  |
| CCOCCCNC(=O)c1ccc2nc(-c3ccc(OC)c(OC)c3)c(-c3ccc(OC)c(OC)c3)nc2c1 | active: 1.46 µM |  |
| COc1ccc(/C=N/NC(=O)CCCOc2ccc(Cl)cc2Cl)cc1[N+](=O)[O-] | inconclusive: 25.9 µM [inhibitor, single point] |  |
| O=C(C1=C[C@@H](C2CC2)C[C@@H](OCCCCO)O1)N1CCOCC1 | inconclusive: 20.6 µM [activator, partial curve, poor fit] |  |
| O=C(COC(=O)c1ccc(F)c([N+](=O)[O-])c1)NC(=O)NCc1ccccc1 | inconclusive: 23.1 µM [inhibitor, single point] |  |
| COc1ccc(CCn2c(N)c(C(=O)NCc3ccco3)c3nc4ccccc4nc32)cc1OC | active: 10 µM |  |
| CC(C)CC(COCc1ccc(Cl)cc1)N1CCN(C(=O)c2ccc(Cl)cc2Cl)CCC1=O (configuration not stated) | active: 23.1 µM |  |
| O=C(N[C@@H](Cc1ccccc1)C(=O)N1CCN(S(=O)(=O)c2ccc(F)cc2)CC1)c1ccco1 |  | inactive: -5.67% |
| Cc1ccccc1C(=O)N1CCN(c2ccc(NC(=O)c3ccc([N+](=O)[O-])o3)cc2)CC1 | inconclusive: 25.9 µM [inhibitor, partial curve, poor fit] |  |
| COc1ccc(/C=N/N2C(=O)CSC2=S)cc1Br |  | inactive: 0.0127% |
| Cc1ccc(C)c(NS(=O)(=O)c2ccc(NC(=O)CSc3ccc(Cl)cc3)cc2)c1 | inconclusive: 23.1 µM [inhibitor, partial curve] |  |
| O=C(NCCc1ccc(F)cc1)c1cc(-c2ccncc2)nc2ccccc12 |  | inactive: -13.6% |
| CC1(C)C2(C#N)C(N)=NC3(OCCO3)C12C#N (configuration not stated) |  | inactive: 3.1% |
| CCN(CC(=O)Nc1c(F)cccc1F)C(=O)C1CC(=O)N(c2ccccc2OC)C1 (configuration not stated) |  | inactive: 6.24% |
| CCCCOc1ccc(C2CC(=O)N(C)C2=O)cc1 (configuration not stated) | inconclusive: 23.1 µM [activator, single point] |  |
| O=C(CCc1ccc(S(=O)(=O)N2CCOCC2)cc1)OCC(=O)c1ccc(Br)cc1 | inconclusive: 20.6 µM [activator, single point] |  |
| COc1cc(C(=O)NCCSc2ccc(Cl)cc2)cc(OC)c1OC | inconclusive: 20.6 µM [inhibitor, single point] |  |
| O=C(Nc1nc(-c2nc3ccccc3s2)cs1)c1ccco1 | inconclusive: 16.4 µM [activator, partial curve] |  |
| Cc1ccsc1/C=N\Nc1cn[nH]c(=O)c1Cl | inconclusive: 23.1 µM [activator, partial curve] |  |
| CCOC(=O)c1c(C)[nH]c(C(=O)N/N=C\c2ccccc2O)c1C | inconclusive: 29.1 µM [activator, single point] |  |
| O=C1CC(N2CCCN(C3CC(=O)N(c4ccc(F)cc4)C3=O)CC2)C(=O)N1c1ccc(F)cc1 (configuration not stated) |  | inactive: -1.49% |
| CSc1nncc(=O)[nH]1 |  | inactive: -19.5% |

Complete entries, quoted from the list:
O=C1CC(N2CCCN(C3CC(=O)N(c4ccc(F)cc4)C3=O)CC2)C(=O)N1c1ccc(F)cc1 (configuration not stated) as listed: activity change, negative = inhibition: inactive: -1.49%
O=C(N[C@@H](Cc1ccccc1)C(=O)N1CCN(S(=O)(=O)c2ccc(F)cc2)CC1)c1ccco1 as listed: activity change, negative = inhibition: inactive: -5.67%
O=C(COC(=O)c1ccc(F)c([N+](=O)[O-])c1)NC(=O)NCc1ccccc1 as listed: Potency: inconclusive: 23.1 µM [inhibitor, single point]
O=C(C1=C[C@@H](C2CC2)C[C@@H](OCCCCO)O1)N1CCOCC1 as listed: Potency: inconclusive: 20.6 µM [activator, partial curve, poor fit]

Further compounds:

| SMILES | Potency | activity change, negative = inhibition |
| --- | --- | --- |
| COC(=O)c1cnn2c(C(F)(F)F)cc(-c3ccccc3)nc12 | inconclusive: 32.6 µM [inhibitor, single point] |  |
| COc1ccc2sc(-c3ccc(N(C)C)cc3)c(C#CC(C)(C)O)c2c1 |  | inactive: -0.0344% |
| Clc1ccc(-c2cc(-c3ccccn3)on2)c(Cl)c1 | inconclusive: 0.651 µM [activator, full curve] |  |
| CN1CCC(N(C)C(=O)c2cccc(S(=O)(=O)N3CCc4ccccc43)c2)CC1 | inconclusive: 29.1 µM [activator, single point] |  |
| N#Cc1ccc(C(=O)Nc2cc(S(=O)(=O)Nc3ccc(Cl)cc3)ccc2N2CCCCC2)cc1 | inconclusive: 18.4 µM [inhibitor, partial curve, poor fit] |  |
| O=C(COc1ccccc1)Nc1ccc2c(c1)nc1n2CCSC1 | inconclusive: 14.6 µM [activator, partial curve] |  |
| O=C(Cn1nnc2c(cnn2-c2ccc(F)cc2)c1=O)OC1CCCCC1 | inconclusive: 18.4 µM [inhibitor, single point] |  |
| COC(=O)c1ccccc1Oc1nc(Cl)cc(OC)n1 |  | inactive: 8.35% |
| COc1ccccc1-c1nnc(NC(=O)c2ccc(S(=O)(=O)N3CCOCC3)cc2)o1 | inconclusive: 20.6 µM [inhibitor, partial curve, poor fit] |  |
| C[C@@H](C(=O)NCc1c(F)cccc1Cl)N1C(=O)N2CCc3c([nH]c4ccccc34)[C@@]2(C)C1=O | inconclusive: 10.3 µM [inhibitor, partial curve, poor fit] |  |
| CC(=O)Nc1nc2ccc(Br)cc2s1 | inconclusive: 3.66 µM [activator, single point] |  |
| C=CCn1c(=O)c(C(=O)NCCc2ccc(Cl)cc2)c(O)c2cc(OC)c(OC)cc21 |  | inactive: 7.74% |
| N#Cc1c(NC(=O)C2CCCO2)sc2c1CCCCCC2 (configuration not stated) | inconclusive: 16.4 µM [activator, single point] |  |
| COc1ccc(/C=N/NC(=O)c2cc(-c3ccccc3OC)nc3ccccc23)cc1COC(C)=O | inconclusive: 23.1 µM [inhibitor, single point] |  |
| COc1ccc(Cl)cc1NC(=O)CN1CCN(S(=O)(=O)N2CCC(C)CC2)CC1 | inconclusive: 20.6 µM [inhibitor, single point] |  |
| C/C(=N\Nc1ccc(F)cc1F)c1ccccc1O | inconclusive: 23.1 µM [activator, partial curve] |  |
| Cc1ccc(S(=O)(=O)NC(C)C(c2cccs2)N2CCN(c3ccccc3)CC2)cc1 (configuration not stated) | inconclusive: 29.1 µM [inhibitor, single point] |  |
| CN(C)c1cccc(NC(=O)CCc2ccccc2)c1 | inconclusive: 20 µM [activator, partial curve] |  |
| Cc1cc(C)cc(Oc2coc3cc(OC(=O)c4cccs4)ccc3c2=O)c1 | inconclusive: 25.9 µM [activator, single point] |  |
| O=C(NC1CCCC1)C(c1ccc(F)cc1)N(C(=O)c1csnn1)C1CC1 (configuration not stated) |  | inactive: -0.665% |
| COc1ccc(NC(=O)CSc2nc(=O)n(CCN(C)C)c3c2CCCC3)cc1OC |  | inactive: 2.77% |
| Cc1cccc(N2CCN(C(=O)c3cnn4c(C(F)F)cc(-c5ccccc5)nc34)CC2)c1C | inconclusive: 4.11 µM [inhibitor, single point] |  |
| CC1(C)Cc2nc3oc4c(N(CCO)Cc5ccccc5)ncnc4c3cc2CO1 | active: 18.4 µM |  |

| SMILES | Potency | activity change, negative = inhibition |
| --- | --- | --- |
| Cc1ccc(NC(=O)c2ccc(S(=O)(=O)N3CCOCC3)cc2)cc1 | inconclusive: 4.11 µM [activator, full curve, poor fit] |  |
| CC(C)(CO)NC(=O)c1ccc2c(c1)C(=O)c1ccccc1-2 | inconclusive: 20.6 µM [activator, partial curve] |  |
| CCC(C)NC(=O)c1cc(-c2ccc3c(c2)OCO3)on1 (configuration not stated) | inconclusive: 5.17 µM [activator, partial curve] |  |
| CCOc1ccc(-n2c(-c3ccc(Br)cc3)c[n+]3c2CCCCC3)cc1 | inconclusive: 3.26 µM [inhibitor, partial curve, poor fit] |  |
| CCOc1ccc(C(=O)Nc2cc(OC)ccc2OC)cc1 | inconclusive: 25.9 µM [activator, single point] |  |
| COC(=O)c1c(N)sc(C(=O)N2CCOCC2)c1C |  | inactive: -0.807% |
| c1ccc2[nH]c(CSc3nc4ccccc4o3)nc2c1 | inconclusive: 5.8 µM [activator, single point] |  |
| O=C(c1ccc(Cl)c(S(=O)(=O)N2CCCCCC2)c1)N1CCN(c2ccccn2)CC1 | active: 20.6 µM |  |
| COc1cc(/C=c2\s/c(=C\C(=O)C(C)(C)C)[nH]c2=O)cc(OC)c1OC | inconclusive: 29.1 µM [inhibitor, single point] |  |
| Cc1csc(NC(=O)CSc2nnc(NC(=O)COc3ccc(Cl)cc3)s2)n1 | inconclusive: 14.6 µM [activator, single point] |  |
| CCN1CCN(c2ccc(NC(=O)COc3ccc([N+](=O)[O-])cc3)cc2)CC1 |  | inactive: 13.3% |
| COc1ccc2c(c1)C(=NNC(=O)c1ccccn1)c1cc(OC)ccc1-2 | inconclusive: 6.51 µM [inhibitor, single point] |  |
| Cn1cncc1C#Cc1ccc2cc(CCCO)oc(=O)c2c1 | inconclusive: 20.6 µM [activator, single point] |  |
| O=[N+]([O-])c1cccc(-c2nnc3ccc4ccccc4n23)c1 | inconclusive: 10.3 µM [activator, partial curve] |  |
| COc1ccc(C(=O)C2CCCN(Cc3cc(C)c(O)c(C)c3)C2)c(OC)c1 (configuration not stated) | inconclusive: 0.0065 µM [inhibitor, full curve, poor fit] |  |
| O=C(NC(=S)Nc1ccccc1F)C1CCCCC1 | inconclusive: 20.6 µM [activator, single point] |  |
| C=CCNC(=O)CN(c1ccccc1OCC)S(=O)(=O)c1ccc(C)cc1 |  | inactive: -1.55% |
| Cc1cc(C(=O)O/N=C(\N)c2ccc(C(C)(C)C)cc2)no1 | inconclusive: 1.83 µM [activator, full curve] |  |
| O=C(CNC(=O)c1cccs1)c1ccc(F)cc1 | inconclusive: 2.06 µM [activator, full curve] |  |
| Cc1ccccc1CSc1nccn1-c1ccccc1 | inconclusive: 29.1 µM [activator, single point] |  |
| COc1ccc(NC(=O)Cn2cc(S(=O)(=O)Cc3ccccc3)c3ccccc32)c(OC)c1 | active: 14.6 µM |  |
